Results are given in words; binding and its absence hold for the method and conditions named. In cells and extracts the contact can be indirect. Some binding calls cover weakened binding; strength is not graded here.
Target: Flag-PHB2 (pcDNA3.1-PHB2-FLAG) (UniProt Q99623)
Assay: co-IP; pcDNA3.1-Flag-PHB2 and pcDNA3.1-HA-c-Myc cotransfected into MDA-MB-231 cells; PHB2 immunoprecipitated; immunoblotting of the Flag and HA tags; also done with cells overexpressing LacRNA (interaction said to be enhanced)

The chains behind the UniProt entries cited, without tags or fusion partners.
UniProt Q99623: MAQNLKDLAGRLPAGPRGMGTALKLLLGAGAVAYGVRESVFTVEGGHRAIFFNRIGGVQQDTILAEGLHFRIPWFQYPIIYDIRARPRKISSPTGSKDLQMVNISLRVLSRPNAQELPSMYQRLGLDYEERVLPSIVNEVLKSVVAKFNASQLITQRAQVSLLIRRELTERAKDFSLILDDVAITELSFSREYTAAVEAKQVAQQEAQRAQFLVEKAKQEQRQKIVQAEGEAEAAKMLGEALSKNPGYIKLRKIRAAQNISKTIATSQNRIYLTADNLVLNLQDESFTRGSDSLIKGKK
UniProt P01106: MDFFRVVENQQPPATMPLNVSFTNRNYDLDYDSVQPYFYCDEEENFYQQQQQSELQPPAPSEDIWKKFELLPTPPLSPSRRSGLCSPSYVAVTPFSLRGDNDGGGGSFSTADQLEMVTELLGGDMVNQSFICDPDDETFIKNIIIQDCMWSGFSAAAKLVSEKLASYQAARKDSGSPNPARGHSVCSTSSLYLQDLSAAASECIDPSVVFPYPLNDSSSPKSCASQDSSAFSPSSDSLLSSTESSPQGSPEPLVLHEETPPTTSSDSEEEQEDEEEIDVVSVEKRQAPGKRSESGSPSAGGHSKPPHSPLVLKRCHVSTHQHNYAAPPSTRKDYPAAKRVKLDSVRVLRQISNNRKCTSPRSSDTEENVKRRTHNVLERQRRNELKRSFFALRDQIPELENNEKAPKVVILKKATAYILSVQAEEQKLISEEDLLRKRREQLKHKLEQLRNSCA

## HA-c-Myc (pcDNA3.1-c-Myc-HA) (from UniProt P01106 1-454)
  binding: binds
